This assay deals with enolase-1 (ENO1), endogenous in PANC-1 cells (human (endogenous in PANC-1)) (UniProt P06733). Description: affinity purification with mass spectrometry; immunoprecipitation of ENO1 from PANC-1 whole-cell lysates (NP40 lysis buffer, Protein A + G magnetic beads), IgG precipitation as negative control, silver staining and MS.

The chains behind the UniProt entries cited, without tags or fusion partners.
UniProt P06733: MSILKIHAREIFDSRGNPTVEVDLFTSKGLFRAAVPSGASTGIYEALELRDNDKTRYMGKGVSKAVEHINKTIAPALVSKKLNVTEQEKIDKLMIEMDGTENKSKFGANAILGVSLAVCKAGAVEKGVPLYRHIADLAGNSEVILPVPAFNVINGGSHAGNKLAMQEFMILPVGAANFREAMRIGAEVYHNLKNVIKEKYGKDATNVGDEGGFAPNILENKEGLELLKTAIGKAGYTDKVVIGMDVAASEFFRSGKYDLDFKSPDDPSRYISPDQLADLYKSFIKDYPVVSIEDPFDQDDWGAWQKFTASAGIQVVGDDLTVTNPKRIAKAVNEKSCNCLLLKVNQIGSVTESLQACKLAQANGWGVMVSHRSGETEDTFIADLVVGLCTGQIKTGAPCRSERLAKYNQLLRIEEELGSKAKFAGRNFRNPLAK
UniProt P31350: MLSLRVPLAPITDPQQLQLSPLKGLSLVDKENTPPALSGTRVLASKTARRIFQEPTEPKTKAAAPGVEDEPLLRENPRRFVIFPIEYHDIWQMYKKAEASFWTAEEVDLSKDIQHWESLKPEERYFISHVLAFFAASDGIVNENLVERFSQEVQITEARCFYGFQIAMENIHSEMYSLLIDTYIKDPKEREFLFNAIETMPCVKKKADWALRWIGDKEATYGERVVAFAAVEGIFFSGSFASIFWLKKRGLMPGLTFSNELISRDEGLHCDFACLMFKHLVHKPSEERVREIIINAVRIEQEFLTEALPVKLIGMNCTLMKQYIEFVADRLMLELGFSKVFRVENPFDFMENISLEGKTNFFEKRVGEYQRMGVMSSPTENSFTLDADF

Results are given in words; binding and its absence hold for the method and conditions named. Binding seen in cells or lysates may run through a third protein. A yes stands for co-enrichment or nearness to the bait. Other partners may have been found.

“Ribonucleotide reductase M2 subunit (RRM2), endogenous in PANC-1 cells (from UniProt P31350 1-389)”: the binding result is reported as “binds”.

(Values after article PMC12847938.)
